Laboratory results: PubChem BioAssay AID1224830 (NIAID, 2016)
Assay: 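Host factors that control LPS-induced TNF expression in human macrophages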 (primary screen). System: human THP-1 monocytic leukaemia cells, TNF dual-luciferase reporter clone, PMA-differentiated to macrophage-like cells. Reagent: siRNA pool against human genes, 50 nM. Timing: LPS for 4 h, given about 3 days after siRNA transfection. Challenge: bacterial LPS (TLR4 ligand), 10 ng/ml. Measurement: 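TNF firefly reporter luminescence divided by renilla, normalised to the plate median, then turned into a robust z-score for each replicate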. Reading the numbers: TNF reporter robust z-score: higher = stronger TNF reporter response to LPS. Hit rule: 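Each well counts as active if its z-score is over 2.8 or under -1.5; controls are left without a call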.
Shown is an unselected part of about 18,000 reagents tested. About 2,900 of all reagents (16%) count as active. 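Calls are made per well; low scores hint the gene aids the LPS response, high scores that it dampens it.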 Repeated entries: four replicate wells of each siRNA pool. Reagent sequences are not shown.

| Target gene | TNF reporter robust z-score | call |
| --- | --- | --- |
| KIR2DL1 | -1.27 | inactive |
| KIR2DL1 | -0.2 | inactive |
| KIR2DL1 | -0.42 | inactive |
| KIR2DL1 | -0.1 | inactive |
| F8 (coagulation factor VIII) | -0.36 | inactive |
| F8 (coagulation factor VIII) | -0.6 | inactive |
| F8 (coagulation factor VIII) | -0.68 | inactive |
| F8 (coagulation factor VIII) | -0.3 | inactive |
| DNAAF5 (dynein axonemal assembly factor 5) | -0.03 | inactive |
| DNAAF5 (dynein axonemal assembly factor 5) | 1.33 | inactive |
| DNAAF5 (dynein axonemal assembly factor 5) | 0.36 | inactive |
| DNAAF5 (dynein axonemal assembly factor 5) | 1.37 | inactive |
| HOXA6 (homeobox A6) | 3.98 | active |
| HOXA6 (homeobox A6) | 4.43 | active |
| HOXA6 (homeobox A6) | 5.06 | active |
| HOXA6 (homeobox A6) | 4.06 | active |
| CWC25 (CWC25 spliceosome associated protein) | 0.53 | inactive |
| CWC25 (CWC25 spliceosome associated protein) | 0.13 | inactive |
| CWC25 (CWC25 spliceosome associated protein) | 0.18 | inactive |
| CWC25 (CWC25 spliceosome associated protein) | 0.61 | inactive |
| AMPH (amphiphysin) | -0.82 | inactive |
| AMPH (amphiphysin) | -1.11 | inactive |
| AMPH (amphiphysin) | -0.35 | inactive |
| AMPH (amphiphysin) | -0.8 | inactive |

Reformatted: entries from further up.
Target gene	TNF reporter robust z-score	call
HOXA6 (homeobox A6)	5.06	active
HOXA6 (homeobox A6)	4.06	active
CWC25 (CWC25 spliceosome associated protein)	0.53	inactive
CWC25 (CWC25 spliceosome associated protein)	0.13	inactive
CWC25 (CWC25 spliceosome associated protein)	0.18	inactive
CWC25 (CWC25 spliceosome associated protein)	0.61	inactive

Continued.
| Target gene | TNF reporter robust z-score | call |
| --- | --- | --- |
| AXIN1 (axin 1) | 0.07 | inactive |
| AXIN1 (axin 1) | 0.87 | inactive |
| AXIN1 (axin 1) | -0.33 | inactive |
| AXIN1 (axin 1) | 0.16 | inactive |
| KLHL6 (kelch like family member 6) | -0.95 | inactive |
| KLHL6 (kelch like family member 6) | 0.03 | inactive |
| KLHL6 (kelch like family member 6) | 0.08 | inactive |
| KLHL6 (kelch like family member 6) | 0.45 | inactive |
| CDS2 (CDP-diacylglycerol synthase 2) | 0.66 | inactive |
| CDS2 (CDP-diacylglycerol synthase 2) | 1.01 | inactive |
| CDS2 (CDP-diacylglycerol synthase 2) | 1.33 | inactive |
| CDS2 (CDP-diacylglycerol synthase 2) | 0.97 | inactive |
| PRCD (photoreceptor disc component) | 0.33 | inactive |
| PRCD (photoreceptor disc component) | 0.14 | inactive |
| PRCD (photoreceptor disc component) | -0.75 | inactive |
| PRCD (photoreceptor disc component) | -1.01 | inactive |
| PDE1A (phosphodiesterase 1A) | 0.1 | inactive |
| PDE1A (phosphodiesterase 1A) | 1.11 | inactive |
| PDE1A (phosphodiesterase 1A) | 0.05 | inactive |
| PDE1A (phosphodiesterase 1A) | 1.02 | inactive |
| REDIC1 (regulator of DNA class I crossover intermediates 1) | -1.06 | inactive |
| REDIC1 (regulator of DNA class I crossover intermediates 1) | -0.69 | inactive |
| REDIC1 (regulator of DNA class I crossover intermediates 1) | -0.52 | inactive |
| REDIC1 (regulator of DNA class I crossover intermediates 1) | -0.46 | inactive |
